Consider 35 targets from the supplement of paper PMC10849652.

By UniProt entry, the sequences of proteins in these tests, tags left out. Where a name states a change or a piece, a line headed by the entry shows the natural chain unless it says otherwise.
UniProt Q6IPR3: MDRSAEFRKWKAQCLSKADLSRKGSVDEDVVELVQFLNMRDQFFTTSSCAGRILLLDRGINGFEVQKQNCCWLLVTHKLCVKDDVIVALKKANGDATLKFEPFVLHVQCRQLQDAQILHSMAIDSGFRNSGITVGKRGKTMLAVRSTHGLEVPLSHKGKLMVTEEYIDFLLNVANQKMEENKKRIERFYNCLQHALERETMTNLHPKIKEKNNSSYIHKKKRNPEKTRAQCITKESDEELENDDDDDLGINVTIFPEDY
UniProt O43396: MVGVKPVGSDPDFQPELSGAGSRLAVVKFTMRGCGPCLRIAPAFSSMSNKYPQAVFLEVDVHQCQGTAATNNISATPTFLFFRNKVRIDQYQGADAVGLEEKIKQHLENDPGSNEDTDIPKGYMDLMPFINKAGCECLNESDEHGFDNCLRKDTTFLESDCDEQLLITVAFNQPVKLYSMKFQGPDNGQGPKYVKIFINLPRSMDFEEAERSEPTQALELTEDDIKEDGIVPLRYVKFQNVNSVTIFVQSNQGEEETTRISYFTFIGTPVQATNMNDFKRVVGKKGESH
UniProt O14530: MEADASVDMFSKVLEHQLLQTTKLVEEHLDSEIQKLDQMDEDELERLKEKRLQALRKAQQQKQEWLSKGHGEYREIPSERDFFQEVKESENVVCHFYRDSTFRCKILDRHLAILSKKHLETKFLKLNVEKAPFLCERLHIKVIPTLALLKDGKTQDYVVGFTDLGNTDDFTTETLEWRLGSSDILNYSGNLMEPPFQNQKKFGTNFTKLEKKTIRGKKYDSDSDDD
UniProt P62253: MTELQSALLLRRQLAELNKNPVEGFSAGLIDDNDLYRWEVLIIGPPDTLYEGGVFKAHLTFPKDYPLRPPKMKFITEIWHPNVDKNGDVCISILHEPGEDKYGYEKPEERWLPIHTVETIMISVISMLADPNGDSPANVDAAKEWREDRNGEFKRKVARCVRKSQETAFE
UniProt Q9UJT0: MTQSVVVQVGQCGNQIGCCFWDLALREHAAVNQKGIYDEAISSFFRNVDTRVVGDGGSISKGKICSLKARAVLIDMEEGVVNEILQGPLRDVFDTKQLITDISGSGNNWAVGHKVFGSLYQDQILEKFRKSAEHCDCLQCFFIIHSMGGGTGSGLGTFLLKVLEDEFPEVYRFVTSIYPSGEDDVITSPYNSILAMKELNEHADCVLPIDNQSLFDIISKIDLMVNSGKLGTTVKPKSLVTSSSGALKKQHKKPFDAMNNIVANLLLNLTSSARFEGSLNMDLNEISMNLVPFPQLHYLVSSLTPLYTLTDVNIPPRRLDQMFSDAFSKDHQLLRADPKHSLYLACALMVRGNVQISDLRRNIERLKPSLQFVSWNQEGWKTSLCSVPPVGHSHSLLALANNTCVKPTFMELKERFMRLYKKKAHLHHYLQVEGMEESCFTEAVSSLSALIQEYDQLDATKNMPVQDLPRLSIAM
UniProt Q9C0C9: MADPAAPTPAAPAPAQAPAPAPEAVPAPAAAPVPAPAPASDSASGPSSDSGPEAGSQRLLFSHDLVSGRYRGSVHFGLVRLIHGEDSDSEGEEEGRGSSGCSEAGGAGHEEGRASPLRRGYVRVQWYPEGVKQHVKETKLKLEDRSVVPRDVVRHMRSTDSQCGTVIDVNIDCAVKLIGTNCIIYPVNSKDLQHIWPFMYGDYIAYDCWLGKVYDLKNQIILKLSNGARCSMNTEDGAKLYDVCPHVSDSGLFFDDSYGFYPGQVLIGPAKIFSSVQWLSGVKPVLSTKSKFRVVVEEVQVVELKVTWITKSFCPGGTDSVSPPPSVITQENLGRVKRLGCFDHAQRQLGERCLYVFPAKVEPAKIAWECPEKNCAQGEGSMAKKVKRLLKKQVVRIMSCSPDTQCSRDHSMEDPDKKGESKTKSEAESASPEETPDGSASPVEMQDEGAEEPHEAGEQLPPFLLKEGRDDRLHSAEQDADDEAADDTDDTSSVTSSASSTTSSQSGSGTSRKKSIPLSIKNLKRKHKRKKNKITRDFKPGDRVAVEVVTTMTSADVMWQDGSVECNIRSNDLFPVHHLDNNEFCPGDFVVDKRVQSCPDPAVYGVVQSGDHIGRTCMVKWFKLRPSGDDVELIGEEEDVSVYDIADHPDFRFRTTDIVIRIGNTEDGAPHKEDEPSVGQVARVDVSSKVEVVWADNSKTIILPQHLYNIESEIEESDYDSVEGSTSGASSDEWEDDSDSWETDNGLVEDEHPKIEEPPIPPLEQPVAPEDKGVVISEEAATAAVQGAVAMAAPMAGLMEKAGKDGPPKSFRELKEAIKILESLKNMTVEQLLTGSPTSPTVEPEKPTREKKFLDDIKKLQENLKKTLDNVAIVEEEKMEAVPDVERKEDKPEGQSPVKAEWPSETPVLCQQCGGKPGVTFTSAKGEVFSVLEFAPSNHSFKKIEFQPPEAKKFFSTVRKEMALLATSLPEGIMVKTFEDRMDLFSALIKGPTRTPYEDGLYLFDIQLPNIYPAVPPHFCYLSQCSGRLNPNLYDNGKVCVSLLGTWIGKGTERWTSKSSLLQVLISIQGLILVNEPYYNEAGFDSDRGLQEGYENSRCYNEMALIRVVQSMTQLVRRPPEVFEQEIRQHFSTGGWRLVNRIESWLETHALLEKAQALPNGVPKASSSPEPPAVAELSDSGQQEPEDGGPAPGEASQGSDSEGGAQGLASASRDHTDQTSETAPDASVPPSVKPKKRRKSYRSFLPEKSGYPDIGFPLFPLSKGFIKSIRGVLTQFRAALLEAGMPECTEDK
UniProt Q13454: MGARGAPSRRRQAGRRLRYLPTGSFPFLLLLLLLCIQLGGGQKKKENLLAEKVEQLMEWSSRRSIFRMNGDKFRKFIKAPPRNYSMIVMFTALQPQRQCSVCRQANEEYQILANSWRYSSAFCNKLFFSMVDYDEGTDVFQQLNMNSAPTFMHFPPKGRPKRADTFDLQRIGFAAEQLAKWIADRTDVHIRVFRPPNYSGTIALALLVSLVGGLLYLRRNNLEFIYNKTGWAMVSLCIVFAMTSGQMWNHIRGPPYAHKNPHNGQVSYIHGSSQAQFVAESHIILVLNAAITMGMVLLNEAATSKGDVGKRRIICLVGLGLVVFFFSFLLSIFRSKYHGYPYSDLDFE
UniProt O95071: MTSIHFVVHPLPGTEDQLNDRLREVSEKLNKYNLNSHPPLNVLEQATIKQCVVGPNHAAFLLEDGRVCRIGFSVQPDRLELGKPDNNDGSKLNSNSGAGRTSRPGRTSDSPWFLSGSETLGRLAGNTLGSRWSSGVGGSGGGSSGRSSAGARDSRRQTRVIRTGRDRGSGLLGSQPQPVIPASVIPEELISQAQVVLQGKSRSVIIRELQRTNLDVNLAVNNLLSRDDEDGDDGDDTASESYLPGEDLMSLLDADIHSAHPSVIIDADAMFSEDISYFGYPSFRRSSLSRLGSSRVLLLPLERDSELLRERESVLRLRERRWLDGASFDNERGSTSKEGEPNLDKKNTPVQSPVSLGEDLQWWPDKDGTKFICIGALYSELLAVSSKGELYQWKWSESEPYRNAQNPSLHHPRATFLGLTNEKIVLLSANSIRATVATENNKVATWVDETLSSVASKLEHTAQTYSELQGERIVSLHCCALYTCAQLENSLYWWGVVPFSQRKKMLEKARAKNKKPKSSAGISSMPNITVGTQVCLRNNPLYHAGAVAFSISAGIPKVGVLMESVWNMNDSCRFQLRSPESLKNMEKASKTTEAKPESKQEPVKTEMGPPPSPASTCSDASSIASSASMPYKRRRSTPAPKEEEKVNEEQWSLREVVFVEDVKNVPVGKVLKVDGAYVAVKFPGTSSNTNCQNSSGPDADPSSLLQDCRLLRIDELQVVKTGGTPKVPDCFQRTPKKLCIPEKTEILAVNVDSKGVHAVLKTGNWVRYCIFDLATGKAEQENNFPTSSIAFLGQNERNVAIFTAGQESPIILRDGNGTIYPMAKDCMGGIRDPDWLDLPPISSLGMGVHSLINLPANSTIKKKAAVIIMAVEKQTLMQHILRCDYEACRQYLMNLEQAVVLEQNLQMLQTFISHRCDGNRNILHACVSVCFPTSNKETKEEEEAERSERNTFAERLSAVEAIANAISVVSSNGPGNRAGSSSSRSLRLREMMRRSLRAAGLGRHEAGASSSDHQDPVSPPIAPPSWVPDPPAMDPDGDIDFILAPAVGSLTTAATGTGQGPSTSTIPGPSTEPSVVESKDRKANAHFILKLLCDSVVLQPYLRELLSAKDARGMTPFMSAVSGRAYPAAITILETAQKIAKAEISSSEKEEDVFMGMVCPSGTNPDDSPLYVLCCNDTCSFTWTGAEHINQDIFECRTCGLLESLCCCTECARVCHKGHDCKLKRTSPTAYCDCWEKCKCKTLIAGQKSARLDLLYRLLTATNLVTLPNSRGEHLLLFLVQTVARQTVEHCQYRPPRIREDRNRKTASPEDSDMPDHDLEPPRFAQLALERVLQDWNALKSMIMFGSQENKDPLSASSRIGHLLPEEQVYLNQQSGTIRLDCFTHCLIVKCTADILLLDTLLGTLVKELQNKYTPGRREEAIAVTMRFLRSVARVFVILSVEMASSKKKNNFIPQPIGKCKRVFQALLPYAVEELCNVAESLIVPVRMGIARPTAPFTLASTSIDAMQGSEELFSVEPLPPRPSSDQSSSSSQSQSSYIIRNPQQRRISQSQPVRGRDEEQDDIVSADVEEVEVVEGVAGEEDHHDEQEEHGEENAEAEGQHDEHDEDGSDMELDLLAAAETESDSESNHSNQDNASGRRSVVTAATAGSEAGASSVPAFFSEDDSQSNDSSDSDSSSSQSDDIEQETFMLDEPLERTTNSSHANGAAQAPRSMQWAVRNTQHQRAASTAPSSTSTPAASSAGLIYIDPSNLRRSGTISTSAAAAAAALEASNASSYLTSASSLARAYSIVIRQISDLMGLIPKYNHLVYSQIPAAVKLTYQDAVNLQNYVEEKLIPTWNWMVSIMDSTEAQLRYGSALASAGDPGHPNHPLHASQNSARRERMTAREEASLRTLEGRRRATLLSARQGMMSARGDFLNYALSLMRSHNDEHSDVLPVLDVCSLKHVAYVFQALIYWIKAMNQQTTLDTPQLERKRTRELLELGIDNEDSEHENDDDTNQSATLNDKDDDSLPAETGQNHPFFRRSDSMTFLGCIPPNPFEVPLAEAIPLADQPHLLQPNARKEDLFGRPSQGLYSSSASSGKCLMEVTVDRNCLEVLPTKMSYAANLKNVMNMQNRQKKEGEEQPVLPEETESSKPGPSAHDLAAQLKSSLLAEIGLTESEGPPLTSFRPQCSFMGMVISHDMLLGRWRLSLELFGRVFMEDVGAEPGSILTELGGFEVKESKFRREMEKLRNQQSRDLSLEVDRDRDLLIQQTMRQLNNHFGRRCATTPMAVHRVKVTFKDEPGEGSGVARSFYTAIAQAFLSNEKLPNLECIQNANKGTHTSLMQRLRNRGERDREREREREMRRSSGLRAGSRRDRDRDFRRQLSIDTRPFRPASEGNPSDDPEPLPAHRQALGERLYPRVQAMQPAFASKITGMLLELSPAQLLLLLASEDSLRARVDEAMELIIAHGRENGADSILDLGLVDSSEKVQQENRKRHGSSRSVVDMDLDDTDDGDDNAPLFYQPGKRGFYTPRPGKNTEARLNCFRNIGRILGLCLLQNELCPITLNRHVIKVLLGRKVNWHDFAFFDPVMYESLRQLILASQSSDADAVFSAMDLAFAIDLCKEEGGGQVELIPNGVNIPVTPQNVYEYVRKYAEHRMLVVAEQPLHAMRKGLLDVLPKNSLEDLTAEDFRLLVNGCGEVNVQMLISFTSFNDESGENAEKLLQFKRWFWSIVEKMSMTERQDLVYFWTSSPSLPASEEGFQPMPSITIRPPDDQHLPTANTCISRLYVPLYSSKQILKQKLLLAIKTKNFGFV
UniProt Q92575: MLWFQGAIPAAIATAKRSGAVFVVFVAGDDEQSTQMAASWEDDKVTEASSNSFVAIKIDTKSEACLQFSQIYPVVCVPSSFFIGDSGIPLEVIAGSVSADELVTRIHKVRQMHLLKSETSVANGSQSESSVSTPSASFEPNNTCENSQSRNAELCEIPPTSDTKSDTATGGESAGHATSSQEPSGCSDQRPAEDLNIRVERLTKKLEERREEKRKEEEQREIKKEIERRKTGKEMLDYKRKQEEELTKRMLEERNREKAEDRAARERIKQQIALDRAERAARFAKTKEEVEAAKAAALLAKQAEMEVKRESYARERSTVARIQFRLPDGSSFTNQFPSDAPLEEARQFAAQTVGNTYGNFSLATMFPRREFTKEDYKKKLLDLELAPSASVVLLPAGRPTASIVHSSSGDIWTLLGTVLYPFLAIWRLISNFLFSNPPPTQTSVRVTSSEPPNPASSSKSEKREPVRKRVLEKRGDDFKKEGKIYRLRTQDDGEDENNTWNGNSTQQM
UniProt P49459, whole entry, looked up: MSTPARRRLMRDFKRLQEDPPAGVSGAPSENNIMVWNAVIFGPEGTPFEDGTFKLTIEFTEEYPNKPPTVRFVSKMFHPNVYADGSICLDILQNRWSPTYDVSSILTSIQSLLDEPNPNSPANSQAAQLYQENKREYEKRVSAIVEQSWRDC

The list shows a part of the results.

Compound in one test: CC[C@@H]1C(=O)N(C)c2cnc(Nc3ccc(C(=O)NC4CCN(C)CC4)cc3OC)nc2N1C1CCCC1
Kind of test: log2 fold change, soluble protein after heating vs DMSO (PISA); higher = thermal stabilisation; K562 lysate, 10 uM; active = over 0.2 and 3.5 SD of the protein, either way, in both replicates (recomputed). The method, boiled down: (§1)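 K562 pellets were dounce-homogenised in PBS pH 7.4 containing 1 mM MgCl2, and the crude extract, at 1 mg/mL protein, was exposed to 10 μM compound for 30 min. Aliquots were heated for 3 min across 48°C-58°C, pooled, brought to 0.5% NP-40 at 4°C and spun at 21,000xg for 90 min, with the supernatant taken as soluble protein. TMTpro 16plex LC-MS/MS with equalised channel sums quantified that protein. Values are log-two fold changes in thermal stability relative to solvent controls, taken from duplicates.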
TTPAL (UniProt Q9BTX7): the log2 fold change is inactive: 0.059. Same read-out and setting: in the case of TUBB3 (UniProt Q13509) it was inactive: -0.019; in that of TYW3 (UniProt Q6IPR3), inactive: 0.038. The same measure, in the same setting: then TXNL1 (UniProt O43396), with inactive: -0.014. The same measure, in the same setting: in the case of UBAP2 (UniProt Q5T6F2) it was inactive: 0.071.

UBE2Q1 (UniProt Q7Z7E8): the log2 fold change was inactive: -0.004. The same measure, in the same setting: then UBR3 isoform 4 (UniProt Q6ZT12), with inactive: -0.033. Same read-out and setting: then UBE2NL (UniProt Q5JXB2), with inactive: -0.025; and TUT4 (UniProt Q5TAX3), with inactive: -0.021. Still for that read-out and setting: in the case of TYMS (UniProt P04818) it was inactive: -0.053. Turning to TWF1 (UniProt Q12792), the log2 fold change was inactive: -0.056.

Compound in another test: CC[C@@H]1C(=O)N(C)c2cnc(Nc3ccc(C(=O)N[C@H]4CC[C@H](N5CCN(CC6CC6)CC5)CC4)cc3OC)nc2N1C(C)C [volasertib]
Described as above. The method, boiled down: as §1
For TXNDC9 (UniProt O14530), the log2 fold change is inactive: 0.021. On the same count and under the same terms, then UBE2G1 (UniProt P62253), with inactive: 0.028.

For the target TUBE1 (UniProt Q9UJT0), the log2 fold change is inactive: -0.005. In the case of UBP1 (UniProt Q9NZI7), the log2 fold change was inactive: -0.017.

UCK1 isoform 4 (UniProt Q9HA47): the log2 fold change was inactive: 0.023. Still for that read-out and setting: then TUBA1B (UniProt P68363), with inactive: -0.046; and UBFD1 (UniProt O14562), with inactive: 0.016; and UBQLN2 (UniProt Q9UHD9), with inactive: 0.001. Still for that read-out and setting: in the case of UBE2O (UniProt Q9C0C9) it was inactive: 0.007; in that of UBA6, inactive: -0.037.

UBE2T (UniProt Q9NPD8): the log2 fold change was inactive: -0.016. Take UBE2I (UniProt P63279): the log2 fold change is inactive: 0.016. Still for that read-out and setting: in the case of TUSC3 isoform 2 (UniProt Q13454) it was inactive: 0.049.

As for UBR5 (UniProt O95071), the log2 fold change is inactive: -0.031. The same measure, in the same setting: in the case of UBE2H (UniProt P62256) it was inactive: 0.004; in that of UBXN6 (UniProt Q9BZV1), inactive: -0.075; in that of U2AF2 (UniProt P26368), inactive: -0.01. With UBE2Z (UniProt Q9H832), the log2 fold change was inactive: -0.011. Still for that read-out and setting: then UBXN4 (UniProt Q92575), with inactive: -0.074; and UAP1L1 (UniProt Q3KQV9), with inactive: -0.097; and UBR2 isoform 4 (UniProt Q8IWV8), with inactive: -0.039. Regarding UBXN10 (UniProt Q96LJ8), the log2 fold change is inactive: 0.074. Same read-out and setting: in the case of UBE2A (UniProt P49459) it was inactive: -0.014; in that of U2SURP (UniProt O15042), inactive: -0.019.

For TTPAL (UniProt Q9BTX7), the log2 fold change is inactive: 0.003. Same read-out and setting: in the case of TUBB3 (UniProt Q13509) it was inactive: -0.046; in that of TYW3 (UniProt Q6IPR3), inactive: -0.002. Still for that read-out and setting: in the case of TXNL1 (UniProt O43396) it was inactive: -0.009; in that of UBAP2 (UniProt Q5T6F2), inactive: -0.002; in that of UBE2Q1 (UniProt Q7Z7E8), inactive: 0.015. On the same count and under the same terms, then UBR3 isoform 4 (UniProt Q6ZT12), with inactive: -0.091; and UBE2NL (UniProt Q5JXB2), with inactive: 0.031; and TUT4 (UniProt Q5TAX3), with inactive: -0.06. Regarding TYMS (UniProt P04818), the log2 fold change was inactive: -0.041. Same read-out and setting: in the case of TWF1 (UniProt Q12792) it was inactive: 0.023.
